Some of the results follow. Residues, ends and D or L forms follow the SMILES beside them. *: point of attachment. Cbz = O=C(OCc1ccccc1)*
Legend:
Experiment in all cases: log2 fold change, soluble protein after heating vs DMSO (PISA); higher = thermal stabilisation; K562 cells, 10 uM, 30 min; active = over 0.2 and 3.5 SD of the protein, either way, in both replicates (recomputed)
erlotinib = compound: C#Cc1cccc(Nc2ncnc3cc(OCCOC)c(OCCOC)cc23)c1 [erlotinib]
In short: (§1)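 K562 cells at 2×10^6 cells/mL were treated with 10 μM compound for 30 min. Aliquots were heated for 3 min across 48°C-58°C, pooled, and extracted in PBS with 0.5% NP-40 at 4°C; soluble protein was the supernatant after 21,000xg for 90 min. Soluble protein was quantified by TMTpro 16plex LC-MS/MS with channel sums equalised, and reported as log2 fold change in thermal stability against DMSO controls, with values from duplicates.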

Protein sequences, listed by entry. Tags and fused reporters are not part of them. Lines headed by an entry give the natural chain unless they say otherwise; changes in a name come on top.
UniProt Q3MIT2: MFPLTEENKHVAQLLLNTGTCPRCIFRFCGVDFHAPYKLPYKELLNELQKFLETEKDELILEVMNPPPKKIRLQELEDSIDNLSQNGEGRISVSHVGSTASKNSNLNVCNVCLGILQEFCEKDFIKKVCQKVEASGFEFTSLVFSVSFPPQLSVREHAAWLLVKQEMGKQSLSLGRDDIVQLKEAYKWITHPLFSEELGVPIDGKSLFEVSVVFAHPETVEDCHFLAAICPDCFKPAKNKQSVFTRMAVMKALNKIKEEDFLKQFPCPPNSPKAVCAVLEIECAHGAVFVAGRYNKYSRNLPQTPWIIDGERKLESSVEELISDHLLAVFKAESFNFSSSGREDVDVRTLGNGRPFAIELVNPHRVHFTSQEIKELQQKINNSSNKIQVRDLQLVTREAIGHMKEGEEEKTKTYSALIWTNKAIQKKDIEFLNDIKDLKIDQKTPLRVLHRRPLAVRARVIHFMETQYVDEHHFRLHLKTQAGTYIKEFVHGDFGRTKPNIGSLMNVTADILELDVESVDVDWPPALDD
UniProt P09417: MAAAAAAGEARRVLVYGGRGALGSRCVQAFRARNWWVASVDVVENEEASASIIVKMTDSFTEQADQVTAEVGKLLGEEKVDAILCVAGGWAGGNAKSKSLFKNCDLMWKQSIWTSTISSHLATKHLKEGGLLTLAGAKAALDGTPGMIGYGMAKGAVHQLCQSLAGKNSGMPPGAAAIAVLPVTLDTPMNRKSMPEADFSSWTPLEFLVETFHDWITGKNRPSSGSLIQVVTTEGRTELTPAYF
UniProt Q969U7: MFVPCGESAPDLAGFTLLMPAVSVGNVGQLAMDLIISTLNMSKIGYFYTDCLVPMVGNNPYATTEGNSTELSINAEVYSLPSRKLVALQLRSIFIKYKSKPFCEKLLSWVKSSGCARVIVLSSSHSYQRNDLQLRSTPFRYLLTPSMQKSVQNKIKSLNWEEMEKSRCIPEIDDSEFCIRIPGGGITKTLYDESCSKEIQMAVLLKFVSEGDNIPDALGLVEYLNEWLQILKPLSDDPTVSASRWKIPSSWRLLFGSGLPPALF
UniProt P78330: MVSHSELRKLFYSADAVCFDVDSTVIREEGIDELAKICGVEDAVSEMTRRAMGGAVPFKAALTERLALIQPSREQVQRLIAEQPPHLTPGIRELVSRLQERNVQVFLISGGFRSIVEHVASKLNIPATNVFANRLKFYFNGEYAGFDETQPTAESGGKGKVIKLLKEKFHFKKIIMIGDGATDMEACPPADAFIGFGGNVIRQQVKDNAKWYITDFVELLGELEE
UniProt Q6ZRP7: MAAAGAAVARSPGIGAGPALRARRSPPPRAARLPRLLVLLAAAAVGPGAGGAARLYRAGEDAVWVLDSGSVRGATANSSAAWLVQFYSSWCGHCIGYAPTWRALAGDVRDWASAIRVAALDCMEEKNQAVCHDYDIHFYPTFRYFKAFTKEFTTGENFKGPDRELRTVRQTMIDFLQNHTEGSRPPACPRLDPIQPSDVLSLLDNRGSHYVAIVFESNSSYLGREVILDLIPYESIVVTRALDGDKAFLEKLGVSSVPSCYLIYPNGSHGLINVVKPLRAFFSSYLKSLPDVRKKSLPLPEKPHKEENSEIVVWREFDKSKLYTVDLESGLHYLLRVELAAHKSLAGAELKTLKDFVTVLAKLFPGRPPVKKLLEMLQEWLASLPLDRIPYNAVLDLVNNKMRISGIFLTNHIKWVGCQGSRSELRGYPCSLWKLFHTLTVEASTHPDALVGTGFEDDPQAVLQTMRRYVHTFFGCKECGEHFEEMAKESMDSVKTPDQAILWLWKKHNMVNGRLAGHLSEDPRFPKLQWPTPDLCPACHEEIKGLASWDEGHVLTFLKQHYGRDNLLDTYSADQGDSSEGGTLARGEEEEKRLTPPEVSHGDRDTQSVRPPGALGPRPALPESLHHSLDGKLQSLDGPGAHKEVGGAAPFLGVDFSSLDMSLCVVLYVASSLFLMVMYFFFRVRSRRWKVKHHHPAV
UniProt Q9H0K6: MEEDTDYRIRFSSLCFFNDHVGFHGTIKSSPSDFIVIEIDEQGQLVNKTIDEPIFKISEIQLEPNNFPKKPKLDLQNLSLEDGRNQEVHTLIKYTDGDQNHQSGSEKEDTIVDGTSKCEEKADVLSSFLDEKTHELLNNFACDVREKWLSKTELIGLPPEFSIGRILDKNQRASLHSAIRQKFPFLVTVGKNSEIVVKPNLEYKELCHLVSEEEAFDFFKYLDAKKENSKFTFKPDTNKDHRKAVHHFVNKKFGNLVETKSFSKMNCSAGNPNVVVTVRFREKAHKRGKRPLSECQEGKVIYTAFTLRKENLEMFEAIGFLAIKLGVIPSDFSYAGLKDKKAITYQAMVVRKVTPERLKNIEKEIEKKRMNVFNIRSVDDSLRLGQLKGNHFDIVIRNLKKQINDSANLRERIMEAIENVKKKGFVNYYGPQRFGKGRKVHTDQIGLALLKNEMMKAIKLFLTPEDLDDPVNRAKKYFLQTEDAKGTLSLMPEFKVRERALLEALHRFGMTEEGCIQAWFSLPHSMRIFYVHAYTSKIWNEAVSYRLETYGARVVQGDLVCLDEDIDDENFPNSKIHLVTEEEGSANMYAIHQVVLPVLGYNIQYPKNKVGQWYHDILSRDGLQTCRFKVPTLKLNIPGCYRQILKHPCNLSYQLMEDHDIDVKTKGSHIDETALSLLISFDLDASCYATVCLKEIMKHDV
UniProt P49023, whole entry, looked up: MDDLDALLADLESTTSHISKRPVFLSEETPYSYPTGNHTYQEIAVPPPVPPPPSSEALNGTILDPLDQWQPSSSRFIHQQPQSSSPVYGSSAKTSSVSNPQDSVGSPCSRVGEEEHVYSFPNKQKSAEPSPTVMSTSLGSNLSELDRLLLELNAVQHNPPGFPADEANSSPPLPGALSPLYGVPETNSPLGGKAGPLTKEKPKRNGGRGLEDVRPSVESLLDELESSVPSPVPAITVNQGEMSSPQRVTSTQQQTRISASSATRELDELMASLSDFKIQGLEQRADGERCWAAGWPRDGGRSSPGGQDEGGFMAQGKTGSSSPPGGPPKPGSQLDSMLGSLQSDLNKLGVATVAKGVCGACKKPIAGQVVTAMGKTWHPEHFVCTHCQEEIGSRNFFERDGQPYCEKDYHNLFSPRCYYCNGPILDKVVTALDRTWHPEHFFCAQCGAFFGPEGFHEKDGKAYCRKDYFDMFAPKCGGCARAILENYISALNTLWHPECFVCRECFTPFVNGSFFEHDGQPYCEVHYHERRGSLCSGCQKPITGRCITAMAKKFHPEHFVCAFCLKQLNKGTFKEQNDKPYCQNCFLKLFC
UniProt Q9H7Z7: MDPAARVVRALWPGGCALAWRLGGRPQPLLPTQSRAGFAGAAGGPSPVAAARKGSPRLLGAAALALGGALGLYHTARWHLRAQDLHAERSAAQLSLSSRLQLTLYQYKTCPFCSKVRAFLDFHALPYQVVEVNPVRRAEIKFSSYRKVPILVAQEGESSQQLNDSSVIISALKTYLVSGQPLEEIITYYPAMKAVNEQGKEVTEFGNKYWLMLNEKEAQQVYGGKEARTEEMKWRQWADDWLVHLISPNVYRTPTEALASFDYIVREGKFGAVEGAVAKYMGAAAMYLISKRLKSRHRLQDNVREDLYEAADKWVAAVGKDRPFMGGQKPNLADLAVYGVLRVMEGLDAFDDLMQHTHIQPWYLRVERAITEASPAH
UniProt Q96QR8: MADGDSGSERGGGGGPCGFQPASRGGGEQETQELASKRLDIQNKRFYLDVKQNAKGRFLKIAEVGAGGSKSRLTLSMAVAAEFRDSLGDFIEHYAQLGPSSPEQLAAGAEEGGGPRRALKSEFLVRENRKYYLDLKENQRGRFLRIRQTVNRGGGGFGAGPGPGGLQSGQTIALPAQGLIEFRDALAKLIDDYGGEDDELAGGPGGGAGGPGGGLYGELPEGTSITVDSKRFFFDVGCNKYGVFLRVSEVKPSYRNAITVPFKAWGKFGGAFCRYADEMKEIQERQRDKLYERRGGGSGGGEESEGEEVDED
UniProt Q9BZE2: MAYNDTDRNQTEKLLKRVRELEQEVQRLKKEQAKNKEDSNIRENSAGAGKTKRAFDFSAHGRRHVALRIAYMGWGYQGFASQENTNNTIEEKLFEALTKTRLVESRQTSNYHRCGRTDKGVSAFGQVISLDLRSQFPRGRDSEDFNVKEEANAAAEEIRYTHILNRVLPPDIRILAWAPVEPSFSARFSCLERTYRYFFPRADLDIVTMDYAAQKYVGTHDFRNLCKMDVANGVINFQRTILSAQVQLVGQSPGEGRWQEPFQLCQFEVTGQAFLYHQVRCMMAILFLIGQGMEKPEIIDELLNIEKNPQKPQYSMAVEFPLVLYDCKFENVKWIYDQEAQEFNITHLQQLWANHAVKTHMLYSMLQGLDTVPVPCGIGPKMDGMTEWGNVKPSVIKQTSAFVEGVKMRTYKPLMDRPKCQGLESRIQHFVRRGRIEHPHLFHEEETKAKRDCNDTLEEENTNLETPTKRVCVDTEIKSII
UniProt P20742, whole entry, looked up: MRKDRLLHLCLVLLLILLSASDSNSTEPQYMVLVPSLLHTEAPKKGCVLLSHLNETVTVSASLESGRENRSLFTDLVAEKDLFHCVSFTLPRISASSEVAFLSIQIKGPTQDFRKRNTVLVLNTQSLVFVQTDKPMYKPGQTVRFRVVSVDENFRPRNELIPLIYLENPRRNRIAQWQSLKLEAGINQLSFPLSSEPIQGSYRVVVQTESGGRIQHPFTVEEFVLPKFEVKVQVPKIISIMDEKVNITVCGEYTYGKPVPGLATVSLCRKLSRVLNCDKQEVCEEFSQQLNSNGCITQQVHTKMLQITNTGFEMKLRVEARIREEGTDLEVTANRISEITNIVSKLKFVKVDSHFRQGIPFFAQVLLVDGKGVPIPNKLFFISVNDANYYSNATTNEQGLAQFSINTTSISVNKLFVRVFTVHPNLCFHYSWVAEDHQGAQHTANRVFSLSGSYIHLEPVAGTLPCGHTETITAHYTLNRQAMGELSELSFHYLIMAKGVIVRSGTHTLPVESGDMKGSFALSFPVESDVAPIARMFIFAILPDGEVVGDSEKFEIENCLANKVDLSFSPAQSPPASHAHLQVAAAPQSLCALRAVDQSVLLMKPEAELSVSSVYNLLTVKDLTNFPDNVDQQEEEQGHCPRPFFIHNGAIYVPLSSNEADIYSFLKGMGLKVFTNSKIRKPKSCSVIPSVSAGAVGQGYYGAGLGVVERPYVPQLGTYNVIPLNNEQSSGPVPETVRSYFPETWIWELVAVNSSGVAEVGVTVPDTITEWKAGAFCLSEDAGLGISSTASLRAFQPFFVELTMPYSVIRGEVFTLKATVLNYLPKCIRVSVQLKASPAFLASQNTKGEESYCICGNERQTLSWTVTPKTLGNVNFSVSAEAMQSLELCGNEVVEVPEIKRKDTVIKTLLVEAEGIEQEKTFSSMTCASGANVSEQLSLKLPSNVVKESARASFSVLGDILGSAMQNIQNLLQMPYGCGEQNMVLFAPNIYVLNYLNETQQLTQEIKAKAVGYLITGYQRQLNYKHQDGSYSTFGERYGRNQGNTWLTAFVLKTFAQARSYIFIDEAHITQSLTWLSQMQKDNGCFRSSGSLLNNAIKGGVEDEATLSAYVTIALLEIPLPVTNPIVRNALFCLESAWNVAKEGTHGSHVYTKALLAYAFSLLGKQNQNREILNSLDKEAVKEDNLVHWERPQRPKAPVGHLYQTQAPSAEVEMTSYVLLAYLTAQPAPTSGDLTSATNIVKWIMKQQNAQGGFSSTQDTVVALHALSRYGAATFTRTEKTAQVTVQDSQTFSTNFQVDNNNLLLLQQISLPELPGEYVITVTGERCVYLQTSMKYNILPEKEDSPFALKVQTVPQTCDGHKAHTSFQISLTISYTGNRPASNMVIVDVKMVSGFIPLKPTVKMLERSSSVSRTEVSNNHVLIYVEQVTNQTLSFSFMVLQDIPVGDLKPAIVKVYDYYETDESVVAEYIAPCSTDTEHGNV
UniProt O95758: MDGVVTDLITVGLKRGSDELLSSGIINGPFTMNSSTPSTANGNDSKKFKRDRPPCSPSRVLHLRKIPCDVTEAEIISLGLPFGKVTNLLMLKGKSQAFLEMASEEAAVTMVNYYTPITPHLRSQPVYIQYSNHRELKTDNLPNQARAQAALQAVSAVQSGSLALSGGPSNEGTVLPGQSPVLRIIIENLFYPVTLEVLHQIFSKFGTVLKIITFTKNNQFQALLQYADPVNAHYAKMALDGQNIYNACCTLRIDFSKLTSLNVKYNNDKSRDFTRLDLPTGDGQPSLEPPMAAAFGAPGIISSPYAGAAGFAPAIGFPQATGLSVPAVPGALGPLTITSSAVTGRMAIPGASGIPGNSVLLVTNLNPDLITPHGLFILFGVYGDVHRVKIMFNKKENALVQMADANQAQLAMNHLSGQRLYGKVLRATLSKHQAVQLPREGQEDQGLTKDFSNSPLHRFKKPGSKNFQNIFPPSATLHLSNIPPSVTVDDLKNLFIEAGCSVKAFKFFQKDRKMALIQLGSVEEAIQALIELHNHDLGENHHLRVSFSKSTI

[1] = compound: C/C(=N\NC(=O)C1=CC(=CC=C1)S(=O)(=O)N2CCOCC2)/C3=C(C=CC(=C3)Cl)O
In short: as §1

[2] = compound: C1=CC(=C(C=C1Cl)C2=NC3=NC=CN=C3C(=N2)NC4=CC=NC=C4)F
In short: as §1

[3] = compound: C1=CC(=CC=C1C2=NC3=C(N2)C=C(C=C3)C(=O)N)OC4=CC=C(C=C4)Cl
In short: as §1

[4] = compound: C1=CC2=C(C=CC(=C2)/C=C\3/C(=O)NC(=NCC4=CC=CS4)S3)N=C1
In short: as §1

[5] = compound: C1=CC2=NC=CN=C2C=C1/C=C/3\C(=O)NC(=O)S3
In short: as §1

[6] = compound: C1=CC=C(C=C1)C2=NC(=C(N2)C3=CC=NC=C3)C4=CC(=C(C=C4)Cl)O
In short: as §1

[7] = compound: C1=CC=C2C(=C1)C3=NNC4=CC=CC(=C43)C2=O
In short: as §1

[8] = compound: C1CCN(C1)C(=O)NC2=CC=CC(=C2)NC3=NC=C(C(=N3)NCCC4=CN=CN4)Br
In short: as §1

[9] = compound: C1CN(CCC1(CC2=CC=C(C=C2)Cl)N)C3=NC=NC4=C3C=CN4
In short: as §1

IRAK-1-4 Inhibitor I = compound: C1COCCN1CCN2C3=CC=CC=C3N=C2NC(=O)C4=CC(=CC=C4)[N+](=O)[O-] [IRAK-1-4 Inhibitor I]
In short: as §1

ibrutinib = compound: C=CC(=O)N1CCC[C@@H](n2nc(-c3ccc(Oc4ccccc4)cc3)c3c(N)ncnc32)C1 [ibrutinib]
In short: as §1

[10] = compound: CC(=O)c1cnc2ccc(-c3cc(Cl)c(O)c(Cl)c3)nc2c1N[C@H]1CC[C@H](CN(C)C)CC1
In short: as §1

ralimetinib = compound: CC(C)(C)Cn1c(N)nc2ccc(-c3[nH]c(C(C)(C)C)nc3-c3ccc(F)cc3)nc21 [ralimetinib]
In short: as §1

[11] = compound: CC(C)(O)CC(=O)NCCn1ccc2ncnc(Nc3ccc(Oc4cccc(C(F)(F)F)c4)c(Cl)c3)c21
In short: as §1

[12] = compound: CC(C)C1=C2N=C(C=C(N2N=C1)NCC3=CC=CC=C3)NCCCCCCN
In short: as §1

[13] = compound: CC(C)C[C@@H](C=O)NC(=O)[C@H](CC(C)C)NC(=O)[C@H](CC(C)C)NC(=O)OCc1ccccc1
In short: as §1

pinometostat = compound: CC(C)N(C[C@H]1O[C@@H](n2cnc3c(N)ncnc32)[C@H](O)[C@@H]1O)[C@H]1C[C@@H](CCc2nc3cc(C(C)(C)C)ccc3[nH]2)C1 [pinometostat]
In short: as §1

[14] = compound: CC1=C(C(CC(=O)N1)C2=CC=C(C=C2)C(F)(F)F)C(=O)NC3=C(C=C4C(=C3)C=NN4)F
In short: as §1

[15] = compound: CC1=C(C2=C(C=C1)C(=O)C3=CC=CC=C3N2CCCN)C
In short: as §1

Measured: log2 fold change

PUS10 (UniProt Q3MIT2)
inactive: erlotinib 0.028 | [1] 0.1 | [2] 0.087 | [3] -0.18 | [4] -0.082 | [5] 0.067 | [6] -0.096 | [7] 0.109 | [8] -0.015 | [9] 0.056 | IRAK-1-4 Inhibitor I -0.009 | ibrutinib 0.079 | [10] -0.253 | ralimetinib -0.004 | [11] -0.023 | [12] -0.087 | [13] 0.057 | pinometostat 0.017 | [14] -0.073 | [15] -0.072

PSME1 (UniProt Q06323)
inactive: erlotinib -0.012 | [1] 0.035 | [2] 0.099 | [3] -0.024 | [4] -0.013 | [5] 0.031 | [6] -0.013 | [7] 0.032 | [8] 0 | [9] 0.034 | IRAK-1-4 Inhibitor I 0.028 | ibrutinib -0.039 | [10] -0.013 | ralimetinib -0.085 | [11] -0.026 | [12] -0.002 | [13] -0.063 | pinometostat -0.037 | [14] -0.019 | [15] -0.013

PTCD3 (UniProt Q96EY7)
inactive: erlotinib -0.061 | [1] 0.072 | [2] 0.009 | [3] 0.147 | [4] -0.08 | [5] -0.018 | [6] 0.031 | [7] 0.072 | [8] -0.062 | [9] -0.033 | IRAK-1-4 Inhibitor I -0.065 | ibrutinib 0.109 | [10] 0.007 | ralimetinib 0.021 | [11] -0.053 | [12] -0.061 | [13] 0.048 | pinometostat 0.018 | [14] 0.009 | [15] -0.182

QDPR (UniProt P09417)
inactive: erlotinib 0.019 | [1] -0.041 | [2] 0.043 | [3] -0.012 | [4] -0.033 | [5] -0.006 | [6] -0.001 | [7] -0.067 | [8] 0.043 | [9] 0.066 | IRAK-1-4 Inhibitor I 0.059 | ibrutinib 0.04 | [10] 0.047 | ralimetinib -0.039 | [11] 0.036 | [12] 0.067 | [13] -0.038 | pinometostat -0.01 | [14] 0.073 | [15] -0.053

PSMG2 (UniProt Q969U7)
inactive: erlotinib -0.031 | [1] 0.025 | [2] 0.047 | [3] -0.02 | [4] 0 | [5] 0.02 | [6] -0.064 | [7] 0.039 | [8] -0.01 | [9] 0.016 | IRAK-1-4 Inhibitor I 0.071 | ibrutinib 0.002 | [10] -0.001 | ralimetinib 0.001 | [11] -0.001 | [12] 0.028 | [13] -0.014 | pinometostat -0.021 | [14] 0.034 | [15] 0.015

PSPH (UniProt P78330)
inactive: erlotinib 0.014 | [1] 0.075 | [2] 0.045 | [3] -0.009 | [4] 0.067 | [5] 0.031 | [6] -0.021 | [7] -0.006 | [8] 0.003 | [9] 0.046 | IRAK-1-4 Inhibitor I 0.002 | ibrutinib 0.006 | [10] 0.017 | ralimetinib -0.013 | [11] 0.015 | [12] 0.004 | [13] -0.014 | pinometostat -0.058 | [14] 0.023 | [15] 0.006

QSOX2 (UniProt Q6ZRP7)
inactive: erlotinib -0.01 | [1] 0.027 | [2] 0.051 | [3] 0.048 | [4] 0.013 | [5] 0.009 | [6] -0.046 | [7] -0.051 | [8] -0.023 | [9] 0.043 | IRAK-1-4 Inhibitor I 0.063 | ibrutinib -0.006 | [10] -0.048 | ralimetinib 0 | [11] -0.019 | [12] -0.027 | [13] -0.018 | pinometostat 0.006 | [14] -0.008 | [15] -0.009

PUS7L (UniProt Q9H0K6)
inactive: erlotinib -0.01 | [1] -0.03 | [2] 0.006 | [3] 0.037 | [4] 0.037 | [5] 0 | [6] -0.012 | [7] -0.026 | [8] -0.076 | [9] -0.018 | IRAK-1-4 Inhibitor I -0.01 | ibrutinib -0.006 | [10] -0.046 | ralimetinib 0.027 | [11] -0.053 | [12] -0.028 | [13] 0.036 | pinometostat -0.02 | [14] -0.012 | [15] 0.01

PRXL2B isoform 3 (UniProt Q8TBF2)
inactive: erlotinib 0.029 | [1] -0.096 | [2] 0.058 | [3] 0.012 | [4] -0.005 | [5] 0.071 | [6] 0.088 | [7] -0.036 | [8] -0.032 | [9] 0.063 | IRAK-1-4 Inhibitor I 0.077 | ibrutinib -0.131 | [10] 0.042 | ralimetinib -0.032 | [11] -0.12 | [12] 0.081 | [13] -0.062 | pinometostat -0.086 | [14] -0.033 | [15] 0.078

PXN (UniProt P49023)
inactive: erlotinib -0.025 | [1] -0.044 | [2] 0.064 | [3] 0.028 | [4] -0.078 | [5] 0.053 | [6] 0.036 | [7] -0.038 | [8] -0.049 | [9] 0.043 | IRAK-1-4 Inhibitor I 0.004 | ibrutinib 0.057 | [10] 0.017 | ralimetinib -0.007 | [11] -0.047 | [12] 0.086 | [13] 0.024 | pinometostat -0.069 | [14] 0.058 | [15] -0.037

PUS7 isoform 2 (UniProt Q96PZ0)
inactive: erlotinib -0.01 | [1] 0.027 | [2] -0.018 | [3] 0.017 | [4] -0.011 | [5] -0.014 | [6] 0.006 | [7] -0.022 | [8] -0.036 | [9] 0.02 | IRAK-1-4 Inhibitor I -0.01 | ibrutinib -0.002 | [10] -0.067 | ralimetinib 0.015 | [11] 0.013 | [12] -0.036 | [13] 0.008 | pinometostat 0.051 | [14] 0.019 | [15] 0.098

PTGES2 (UniProt Q9H7Z7)
inactive: erlotinib 0.009 | [1] 0.046 | [2] 0.027 | [3] -0.002 | [4] 0.007 | [5] 0.016 | [6] 0.02 | [7] 0.012 | [8] 0.006 | [9] 0.033 | IRAK-1-4 Inhibitor I 0.034 | ibrutinib 0.025 | [10] -0.006 | ralimetinib -0.043 | [11] 0.035 | [12] -0.02 | [13] 0.021 | pinometostat -0.067 | [14] -0.024 | [15] -0.002

PURB (UniProt Q96QR8)
inactive: erlotinib -0.106 | [1] -0.123 | [2] -0.534 | [3] 0.016 | [4] -0.023 | [5] -0.014 | [6] -0.212 | [7] -0.024 | [8] 0.058 | [9] -0.251 | IRAK-1-4 Inhibitor I -0.182 | ibrutinib 0.076 | [10] 0.047 | ralimetinib 0.014 | [11] 0.147 | [12] 0.101 | [13] 0.095 | pinometostat 0.221 | [14] 0.042 | [15] -0.636

PUS3 (UniProt Q9BZE2)
inactive: erlotinib 0.002 | [1] 0.149 | [2] 0.027 | [3] 0.049 | [4] 0.067 | [5] 0.023 | [6] -0.157 | [7] -0.013 | [8] -0.018 | [9] 0.072 | IRAK-1-4 Inhibitor I 0.004 | ibrutinib -0.061 | [10] -0.104 | ralimetinib -0.117 | [11] -0.023 | [12] -0.064 | [13] 0.021 | pinometostat -0.039 | [14] 0.084 | [15] -0.078

Pulled one by one from above (2):
PTCD3 (UniProt Q96EY7)
inactive: erlotinib -0.061 | [1] 0.072 | [2] 0.009 | [3] 0.147 | [4] -0.08 | [5] -0.018 | [6] 0.031 | [7] 0.072 | [8] -0.062 | [9] -0.033 | IRAK-1-4 Inhibitor I -0.065 | ibrutinib 0.109 | [10] 0.007 | ralimetinib 0.021 | [11] -0.053 | [12] -0.061 | [13] 0.048 | pinometostat 0.018 | [14] 0.009 | [15] -0.182

PRXL2B isoform 3 (UniProt Q8TBF2)
inactive: erlotinib 0.029 | [1] -0.096 | [2] 0.058 | [3] 0.012 | [4] -0.005 | [5] 0.071 | [6] 0.088 | [7] -0.036 | [8] -0.032 | [9] 0.063 | IRAK-1-4 Inhibitor I 0.077 | ibrutinib -0.131 | [10] 0.042 | ralimetinib -0.032 | [11] -0.12 | [12] 0.081 | [13] -0.062 | pinometostat -0.086 | [14] -0.033 | [15] 0.078

Next part:

PZP (UniProt P20742)
inactive: erlotinib -0.178 | [1] -0.088 | [2] 0.1 | [3] 0.145 | [4] 0.169 | [5] 0.011 | [6] 0.095 | [7] -0.039 | [8] 0.188 | [9] 0.261 | IRAK-1-4 Inhibitor I 0.076 | ibrutinib 0.075 | [10] 0.118 | ralimetinib 0.006 | [11] 0.137 | [12] 0.109 | [13] 0.041 | pinometostat -0.024 | [14] 0.062 | [15] -0.218

PTBP3 isoform 4 (UniProt O95758)
inactive: erlotinib -0.037 | [1] 0.061 | [2] 0.007 | [3] 0.007 | [4] 0.015 | [5] -0.002 | [6] -0.018 | [7] 0.018 | [8] -0.032 | [9] 0.031 | IRAK-1-4 Inhibitor I -0.066 | ibrutinib -0.009 | [10] -0.021 | ralimetinib 0.031 | [11] -0.025 | [12] -0.152 | [13] 0.004 | pinometostat -0.047 | [14] -0.031 | [15] 0.148

Reference: the supplement of paper PMC10849652
